Data as given in PubChem BioAssay AID652243 (Drosophila RNAi Screening Center, 2013).

Purpose: 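Fly regulators of androgen-dependent reporter output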 (primary screen)
Cell system: Drosophila S2R+ cells
Knock-down reagent: long dsRNA against Drosophila genes
Duration: 72 h (48 h, then 24 h hormone)
Treatment: synthetic androgen R1881 at 10 nM for 24 h
Read-out: 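Per-well raw luminescence of the androgen-driven firefly reporter and of the Renilla control, two replicates each, without normalisation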
Reading the numbers: firefly reporter light: higher = more light from androgen-responsive reporter; Renilla control light: higher = more constitutive control signal (cell number, transfection)
Call rule: 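Hit when the log firefly-to-Renilla ratio dropped or increased by a fixed fold versus the mean of GFP or LacZ controls across duplicate plates; lowering cut given as 1.5 and as 3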
Calls: active = hit: reporter lowered or raised; inactive = no hit
In all, the deposit lists about 24,000 reagents; below is a random part of those with a known target gene and a result. Over the whole deposit, 246 (1%) were called active. 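Plates not normalised; calls are printed but the firefly/Renilla ratio behind them is not deposited; fold cut for lowering reported inconsistently.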 Raw values vary from plate to plate and are shown uncorrected. Unmarked entries are inactive. Reagents against one gene are numbered here. Not stated in the record: the amount of reagent.

no.	Target gene	dsRNA no.	firefly reporter light, replicate 1	firefly reporter light, replicate 2	Renilla control light, replicate 1	Renilla control light, replicate 2
1	Art6	1	1.20e5	1.04e5	1.52e6	2.03e6
2	amos	1	75959	71157	1.10e6	9.60e5
3	amos	2	8.41e5	1.26e6	8.61e5	8.88e5
4	amos	3	6.55e5	8.22e5	1.31e6	1.29e6
5	Cdk7	1	2.96e5 (active)	2.31e5	2.09e6	1.61e6
6	Cdk7	2	6.95e5 (active)	7.27e5	5.86e5	7.49e5
7	Charon	1	9.06e5	7.16e5	1.73e6	1.15e6
8	pr	1	8.91e5	9.88e5	1.90e6	2.34e6
9	CG15212	1	3.09e5	2.15e5	2.05e6	2.29e6
10	CG13887	1	9.23e5	1.15e6	1.46e6	1.63e6
11	dnd	1	2.92e5	2.45e5	3.07e6	3.00e6
12	Dp1	1	4.15e5	4.86e5	4.93e5	4.50e5
13	CG4770	1	3.71e5	2.90e5	3.65e6	3.05e6
14	Art4	1	1.17e5	1.54e5	1.85e6	2.42e6
15	CG11141	1	8.75e5	8.99e5	1.74e6	1.75e6
16	CG3328	1	4.88e5	3.58e5	1.35e6	1.35e6
17	CG3328	2	2.91e5	3.27e5	7.98e5	8.64e5
18	CG9184	1	4.78e5	4.88e5	2.54e6	2.69e6
19	CG9184	2	1.21e6	8.66e5	2.08e6	1.49e6
20	CG9184	3	8.33e5	6.35e5	8.39e5	9.84e5
21	Sfmbt	1	1.16e6	1.18e6	2.02e6	1.80e6
22	Sfmbt	2	5.75e5	6.68e5	8.84e5	8.22e5
23	GlyT	1	1.09e5	2.00e5	1.40e6	1.21e6
24	GlyT	2	2.57e5	2.39e5	8.42e5	8.03e5
25	Ass	1	2.73e5	5.55e5	7.79e5	1.92e6
26	CG7745	1	8.23e5	9.80e5	1.65e6	1.75e6
27	CG7745	2	5.93e5	6.02e5	6.90e5	6.90e5
28	Cpr49Af	1	2.19e5	2.04e5	1.47e6	1.24e6
29	Cpr49Af	2	9.54e5	6.94e5	7.76e5	8.97e5
30	CG32512	1	3.46e5	4.11e5	1.99e6	2.27e6
31	CG32512	2	32454	55857	3.81e5	2.41e5
32	CG32512	3	7.44e5	7.45e5	1.89e6	1.47e6
33	Cyp28d2	1	91007	1.05e5	9.42e5	9.48e5
34	Cyp28d2	2	2.16e5	1.99e5	3.86e5	5.02e5
35	CG15882	1	1.32e5	1.00e5	6.81e5	3.58e5
36	mesh	1	3.83e5	4.35e5	2.63e6	3.01e6
37	mesh	2	3.16e5	2.73e5	2.39e6	3.33e6
38	mesh	3	1.38e5	1.36e5	1.91e6	2.20e6
39	Gr59b	1	2.88e5	3.00e5	1.97e6	1.89e6
40	CG11815	1	94670	1.07e5	9.18e5	1.29e6
41	CG11815	2	4.64e5	2.87e5	8.72e5	6.63e5
42	CG31419	1	1.18e5	71428	1.74e6	9.01e5
43	CG31419	2	3.97e5	4.54e5	6.49e5	5.49e5
44	BTBD9	1	5.35e5	3.67e5	4.47e6	3.02e6
45	BTBD9	2	4.74e5	6.16e5	3.82e5	3.55e5
46	Oatp58Dc	1	8.79e5	3.18e5	1.63e6	6.73e5
47	Oatp58Dc	2	4.86e5	3.37e5	9.20e5	7.89e5
48	Oatp58Dc	3	7.64e5	7.70e5	1.58e6	1.87e6
49	sha	1	2.15e5	1.72e5	1.63e6	7.03e5
50	CG6333	1	3.28e5	2.24e5	3.68e6	3.01e6
51	Bicra	1	93736	52955	1.60e6	1.79e6
52	Bicra	2	1.05e6	1.11e6	9.12e5	1.07e6
53	ast	1	4.70e5	4.57e5	2.10e6	1.67e6
54	ast	2	5.62e5	3.34e5	2.27e6	1.49e6
55	CG18609	1	1.04e5	1.17e5	1.44e6	1.67e6
56	CG18609	2	2.22e5	2.29e5	5.91e5	7.67e5
57	CG8086	1	6.21e5	7.36e5	1.76e6	1.80e6
58	CG8086	2	1.80e5	2.08e5	1.38e6	1.64e6
59	CG8086	3	2.58e5	1.82e5	4.50e5	8.00e5
